Among the data in publication PMC7819943, “Rice protein-binding microarrays: a tool to detect cis-acting elements near promoter regions in rice” are binding signal values, retold here.

This is one part of the list.

The target of this experiment is T1, OsSMF1 (Oryza sativa, UniProt Q6ZLB0 1-436).
T1 sequence: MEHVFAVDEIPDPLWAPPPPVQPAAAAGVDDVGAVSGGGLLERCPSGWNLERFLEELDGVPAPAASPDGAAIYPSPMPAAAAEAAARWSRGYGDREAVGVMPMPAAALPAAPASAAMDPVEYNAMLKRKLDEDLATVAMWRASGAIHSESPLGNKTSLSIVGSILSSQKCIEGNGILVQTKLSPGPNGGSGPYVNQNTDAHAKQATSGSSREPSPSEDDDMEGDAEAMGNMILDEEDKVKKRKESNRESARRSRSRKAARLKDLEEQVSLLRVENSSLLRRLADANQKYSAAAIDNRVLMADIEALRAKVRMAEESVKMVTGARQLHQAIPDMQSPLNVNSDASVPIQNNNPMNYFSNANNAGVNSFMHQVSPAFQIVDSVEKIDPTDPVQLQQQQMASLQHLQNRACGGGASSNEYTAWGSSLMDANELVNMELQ
Put plainly: protein-binding microarray (RPBM); PBS, 2% BSA, 51.3 ng/ul salmon testes DNA, 50 uM zinc acetate, 200 nM TF, 25 C, 1 h; high values mean tight binding. Conditions: protein: recombinant; tags: N-terminal polyhistidine and DsRed monomer fusion (pET32a); chain copies: 2; label: CyDye5-dUTP incorporated in the synthesized complementary strand; 3' TTTTT single-stranded linker to array surface; dsDNA, one strand shown. The method in brief:
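Transcription factors, each fused N-terminally to a polyhistidine tag and DsRed, were expressed in E. coli BL21-CodonPlus and purified on Ni–NTA. A custom Agilent array was made double-stranded by primer extension with Cy5-dUTP and blocked with 2% BSA. It was incubated with 200 nM protein in PBS, 2% BSA, salmon testes DNA and 50 µM zinc acetate at 25 °C for 1 h, then washed. The binding signal is per-feature fluorescence intensity (arbitrary units) read on an Axon 4000B scanner.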
As for “GACACGCCACATGATTTTATTGATCGGTACACGCTGCAAGCGGAGTCACCTAGTGCAG”, the binding signal is 3430 fluorescence intensity (a.u.).

For the sequence “AATACTGAATACTAGTGCAACGTCATTGAAAATTTTATCCCGGAGTCACCTAGTGCAG”, the binding signal was 5090 fluorescence intensity (a.u.).

On to “TCCGTGATAATATATACACACACTACACGTAGGGTGCGTTCGGAGTCACCTAGTGCAG”, for which the binding signal was 4600 fluorescence intensity (a.u.).

“TGTTTTCAGAGTTGGCATTTTGCTGTTGAGTTGCATTCCTCGGAGTCACCTAGTGCAG”: the binding signal is 3730 fluorescence intensity (a.u.).

For “GCTACAGCACGGACCACAAGATGCATGTGTGTATCATACGCGGAGTCACCTAGTGCAG”, the binding signal is 3840 fluorescence intensity (a.u.).

For the sequence “AACGGGATATATGATGAAACCACGTCGGCCAGTTTGATCGCGGAGTCACCTAGTGCAG”, the binding signal is 8340 fluorescence intensity (a.u.).

For the sequence “GACCCCGGTTTTGTCCCACGTGGCGGCTGACTCAGCGTGGCGGAGTCACCTAGTGCAG”, the binding signal was 22500 fluorescence intensity (a.u.).

Consider “ACCTTAATGGACACATCATGCCCAACTAAATCCATATTTGCGGAGTCACCTAGTGCAG”, for which the binding signal was 4460 fluorescence intensity (a.u.).

For “TGATTAACGTAGGACAGTGACATGTACACCAACTAGTCGTCGGAGTCACCTAGTGCAG”, the binding signal is 4560 fluorescence intensity (a.u.).

As for “CGAATCATCCTTTCACGCTTAGCTGGATTATGTGACAGCCCGGAGTCACCTAGTGCAG”, the binding signal is 3630 fluorescence intensity (a.u.).

Turning to “CCGCGCTCACCTGCCGGGCGTGGCGCGCCGCGGTGGCCTCCGGAGTCACCTAGTGCAG”, the binding signal was 3140 fluorescence intensity (a.u.).

“CGCGCGAGCAACCACCACCTCCACATCGCTTCACGTAGACCGGAGTCACCTAGTGCAG”: the binding signal was 3770 fluorescence intensity (a.u.).

As for “GCGCGTGCGAGTCCGCCACGTCCCCTCGAATGTTCGATATCGGAGTCACCTAGTGCAG”, the binding signal is 6290 fluorescence intensity (a.u.).

As for “ATACTACGATGTTGATTTCGCTGACATTGTGCATCGACGTCGGAGTCACCTAGTGCAG”, the binding signal was 13400 fluorescence intensity (a.u.).

Take “TCTGAGTTACTTCCAAGTTGACTAGTTACCTCTTACTACCCGGAGTCACCTAGTGCAG”: the binding signal is 3260 fluorescence intensity (a.u.).

For “GGACTTTCTACCGTCATTATCATTGTCATTGACTAGCATGCGGAGTCACCTAGTGCAG”, the binding signal was 4080 fluorescence intensity (a.u.).

As for “GGTTTTATCTGACGTGGCGGCTGAGTCAGCGTGGGCCCCACGGAGTCACCTAGTGCAG”, the binding signal was 26700 fluorescence intensity (a.u.).

As to “GAGGTTCCTGGGATTAAATAACAAACGGGCCGCGTCACATCGGAGTCACCTAGTGCAG”, the binding signal was 5760 fluorescence intensity (a.u.).

As for “TAGTAGTATTGTACAATGTTTATTTGATAGAGTATATACGCGGAGTCACCTAGTGCAG”, the binding signal was 3490 fluorescence intensity (a.u.).

On to “ATACAGTAAATATTTGCTAATGACGGATTAATTAGGCTTACGGAGTCACCTAGTGCAG”, for which the binding signal is 3790 fluorescence intensity (a.u.).

Consider “GGCTAGCTAGCTAGCTTGCCATATCGACTCGTCCGTTCCTCGGAGTCACCTAGTGCAG”, for which the binding signal is 3360 fluorescence intensity (a.u.).

Consider “GGCAGTGGAAAGTGGCAGTTCTGACCACATTCCCTACACCCGGAGTCACCTAGTGCAG”, for which the binding signal was 3640 fluorescence intensity (a.u.).

For “ACCCGCGCCGGCCGGCAGGGCGTCGCCGTCGACGTCGTCGCGGAGTCACCTAGTGCAG”, the binding signal is 3980 fluorescence intensity (a.u.).

As to “CGGAGAGACTAAATAATAAATGAGATGCCTATCACGACCGCGGAGTCACCTAGTGCAG”, the binding signal is 3450 fluorescence intensity (a.u.).

For “TCGCTCGCTCGCCTGCCAAATCTGCATTGGTGCTAGGAGGCGGAGTCACCTAGTGCAG”, the binding signal was 3730 fluorescence intensity (a.u.).

For “CCGGCCGTTGGGAGCCACGTCAGCCGGCGGCCTCCGCCTTCGGAGTCACCTAGTGCAG”, the binding signal is 13100 fluorescence intensity (a.u.).

Take “GTATACTGACTTGATGAGCTCTGACTGCTCATGCCATAATCGGAGTCACCTAGTGCAG”: the binding signal was 3350 fluorescence intensity (a.u.).

For “TTAACCAAACCACGACGAAAGCAGGTTAGGTCGCGGCAGGCGGAGTCACCTAGTGCAG”, the binding signal is 3380 fluorescence intensity (a.u.).

With “GGGTCCGGGTGTGTGGGGTGGGGAAGCGAGGCGAAACCCGCGGAGTCACCTAGTGCAG”, the binding signal is 3940 fluorescence intensity (a.u.).

As for “TCTGTGCCACTCGATCTGTCATCGCCGAGCGCATCCACAGCGGAGTCACCTAGTGCAG”, the binding signal is 4400 fluorescence intensity (a.u.).

Regarding “AGGATCCGGTTCAATGTTCAGGAGATGTTGTCATTTTCGGCGGAGTCACCTAGTGCAG”, the binding signal was 4420 fluorescence intensity (a.u.).

In the case of “TCGAGCAGCACTATGCCGCCACGCCAAGAGAACTTCAGCTCGGAGTCACCTAGTGCAG”, the binding signal was 3400 fluorescence intensity (a.u.).

Turning to “CAACTATGAGGAAACCCTTGTTGAAAGATGGCAAGATAGCCGGAGTCACCTAGTGCAG”, the binding signal is 26800 fluorescence intensity (a.u.).

Turning to “TGGTGCTGTGGTGGTGGTGGTCATGGACTCATTGGGCATGCGGAGTCACCTAGTGCAG”, the binding signal was 3180 fluorescence intensity (a.u.).

Consider “TAAACTCTTTCTGTGAGTCAGCACAATAGCCCATCGTGCCCGGAGTCACCTAGTGCAG”, for which the binding signal is 18700 fluorescence intensity (a.u.).

On to “CCCACCAGCCGCCTCGCCGGCCGCCGCCGCGGGCGCCTCCCGGAGTCACCTAGTGCAG”, for which the binding signal is 6350 fluorescence intensity (a.u.).

Regarding “GTTCCAGAGCACACAAGTGACTAGGACAGTGGCGAAGCGCCGGAGTCACCTAGTGCAG”, the binding signal was 3720 fluorescence intensity (a.u.).

Turning to “CAACCACAACACCGTCTTCTTCGACGTCAACATGCGCGCCCGGAGTCACCTAGTGCAG”, the binding signal is 4530 fluorescence intensity (a.u.).

With “ACTTTTCTTAGTTTCCACGTCGCAGTTTCTCTTCTCTCCTCGGAGTCACCTAGTGCAG”, the binding signal was 6280 fluorescence intensity (a.u.).

In the case of “CTCTCTATCATTCTCCGTTGCCACGCTAATCGCTCAGCGCCGGAGTCACCTAGTGCAG”, the binding signal is 3870 fluorescence intensity (a.u.).

Take “AAACGCTATAAAAGGCGGCGGTGCCTTTCTCCTTCATCCGCGGAGTCACCTAGTGCAG”: the binding signal was 3170 fluorescence intensity (a.u.).

On to “AGACTCCTCAATAGGTCCTGGATCAGCACGTGACTCGCAACGGAGTCACCTAGTGCAG”, for which the binding signal was 4030 fluorescence intensity (a.u.).
